In US9642789B2, “Methods for generating new hair follicles, treating baldness, and hair removal” (THE TRUSTEES OF THE UNIVERSITY OF PENNSYLVANIA, priority 2005, dated 2017):
At least one compound was matched to its structure with a doubt left.

System: HF formation by EDIHN
Test: Whole-mount EDIHN assay: factor injected into re-epithelialized excisional wound, new HF formation
Assay type: in vivo, mice
Conditions: administered 11 days after incisional wounding, as in Example 11

## Nc1cc(N2CCCCC2)nc(N)[n+]1[O-] [Minoxidil, minoxidil]
  HF formation after minoxidil administration: enhances HF formation
